In article PMC10390495:
No constants are given. Whether binding was seen depends on the method and setting. Binding seen in cells or lysates may run through a third protein. Some entries that bind do so weakly or less than the wild type. For some of these results: Sequences can lack the tags named with a protein.

T1: Flag-tagged hexokinase 2 (HK2), overexpressed from the lentiviral vector LV-HK2 (UniProt P52789)
T1 sequence: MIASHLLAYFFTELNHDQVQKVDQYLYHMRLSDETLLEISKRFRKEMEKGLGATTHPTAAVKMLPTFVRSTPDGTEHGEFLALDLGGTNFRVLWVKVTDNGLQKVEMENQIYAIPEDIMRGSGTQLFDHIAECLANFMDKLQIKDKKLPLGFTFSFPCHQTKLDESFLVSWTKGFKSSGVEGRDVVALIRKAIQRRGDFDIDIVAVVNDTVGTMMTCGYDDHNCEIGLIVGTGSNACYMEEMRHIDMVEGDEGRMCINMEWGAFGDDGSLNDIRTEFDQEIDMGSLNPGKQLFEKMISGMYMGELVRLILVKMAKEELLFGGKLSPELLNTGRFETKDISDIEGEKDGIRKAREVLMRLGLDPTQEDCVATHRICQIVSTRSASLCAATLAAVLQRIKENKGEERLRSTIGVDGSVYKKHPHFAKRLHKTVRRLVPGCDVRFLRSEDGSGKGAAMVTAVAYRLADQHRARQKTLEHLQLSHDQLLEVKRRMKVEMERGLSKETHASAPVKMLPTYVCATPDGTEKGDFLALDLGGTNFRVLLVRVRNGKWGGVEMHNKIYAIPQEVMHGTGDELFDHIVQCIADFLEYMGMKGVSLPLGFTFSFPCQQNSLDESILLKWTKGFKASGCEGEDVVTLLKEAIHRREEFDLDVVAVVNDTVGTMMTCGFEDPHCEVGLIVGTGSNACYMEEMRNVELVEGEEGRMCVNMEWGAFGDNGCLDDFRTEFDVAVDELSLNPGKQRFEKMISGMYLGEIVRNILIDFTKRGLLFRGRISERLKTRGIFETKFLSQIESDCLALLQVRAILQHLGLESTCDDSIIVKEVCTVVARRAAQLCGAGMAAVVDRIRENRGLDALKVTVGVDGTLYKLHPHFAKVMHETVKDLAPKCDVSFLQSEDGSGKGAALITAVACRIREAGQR

T2: hexokinase 2 (HK2), endogenous in unedited HCC cells (human (endogenous in MHCC97H, MHCC97H IR-R)) (UniProt P52789)
T2 sequence: T1 sequence

T3: aminoacyl tRNA synthetase complex interacting multifunctional protein 2 (AIMP2) (human (endogenous in MHCC97H, MHCC97L)) (UniProt Q13155)
T3 sequence: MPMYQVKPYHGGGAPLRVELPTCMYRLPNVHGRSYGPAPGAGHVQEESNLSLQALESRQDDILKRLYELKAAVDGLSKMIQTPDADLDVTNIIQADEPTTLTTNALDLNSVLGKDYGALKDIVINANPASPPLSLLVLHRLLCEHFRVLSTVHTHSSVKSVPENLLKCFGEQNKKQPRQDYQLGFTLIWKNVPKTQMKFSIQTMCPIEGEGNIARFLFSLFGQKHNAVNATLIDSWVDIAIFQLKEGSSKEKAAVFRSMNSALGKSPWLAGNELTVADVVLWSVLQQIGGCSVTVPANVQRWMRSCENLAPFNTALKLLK

B1: aminoacyl tRNA synthetase complex interacting multifunctional protein 2 (AIMP2) (protein, UniProt Q13155 1-320)
chain: T3 sequence
B2: Flag-tagged hexokinase 2 (HK2), overexpressed from the lentiviral vector LV-HK2 (enzyme, UniProt P52789 1-917)
chain: T1 sequence

Columns and labels:
[1] = molecular target: T1, Flag-tagged hexokinase 2 (HK2), overexpressed from the lentiviral vector LV-HK2; assay: co-IP; lysates of MHCC97H LV-HK2 and MHCC97L LV-HK2 cells post 8 Gy radiation; anti-HK2 or anti-AIMP2 against IgG, overnight 4 °C, protein A/G magnetic beads, western blot
[2] = molecular target: T2, hexokinase 2 (HK2), endogenous in unedited HCC cells (human (endogenous in MHCC97H, MHCC97H IR-R)); assay: co-IP; lysates of unedited cells without ionizing radiation; protein A/G magnetic beads, western blot
[3] = molecular target: T2, hexokinase 2 (HK2), endogenous in unedited HCC cells (human (endogenous in MHCC97H, MHCC97H IR-R)); assay: co-IP; lysates of unedited MHCC97H and MHCC97H IR-R cells post 8 Gy radiation; protein A/G magnetic beads, western blot
[4] = molecular target: T3, aminoacyl tRNA synthetase complex interacting multifunctional protein 2 (AIMP2) (human (endogenous in MHCC97H, MHCC97L)); assay: co-IP; lysates of MHCC97H LV-HK2 and MHCC97L LV-HK2 cells post 8 Gy radiation; anti-HK2 or anti-AIMP2 against IgG, overnight 4 °C, protein A/G magnetic beads, western blot

Binder | binding [1] | binding [2] | binding [3] | binding [4]
B1 | binds | no binding (condition: cells without ionizing radiation) | binds | –
B2 | – | – | – | binds
